Test results published in doi:10.1101/2020.07.29.223594.

Amino acid sequences for entries named in this document (tags omitted).
UniProt Q6PDQ2: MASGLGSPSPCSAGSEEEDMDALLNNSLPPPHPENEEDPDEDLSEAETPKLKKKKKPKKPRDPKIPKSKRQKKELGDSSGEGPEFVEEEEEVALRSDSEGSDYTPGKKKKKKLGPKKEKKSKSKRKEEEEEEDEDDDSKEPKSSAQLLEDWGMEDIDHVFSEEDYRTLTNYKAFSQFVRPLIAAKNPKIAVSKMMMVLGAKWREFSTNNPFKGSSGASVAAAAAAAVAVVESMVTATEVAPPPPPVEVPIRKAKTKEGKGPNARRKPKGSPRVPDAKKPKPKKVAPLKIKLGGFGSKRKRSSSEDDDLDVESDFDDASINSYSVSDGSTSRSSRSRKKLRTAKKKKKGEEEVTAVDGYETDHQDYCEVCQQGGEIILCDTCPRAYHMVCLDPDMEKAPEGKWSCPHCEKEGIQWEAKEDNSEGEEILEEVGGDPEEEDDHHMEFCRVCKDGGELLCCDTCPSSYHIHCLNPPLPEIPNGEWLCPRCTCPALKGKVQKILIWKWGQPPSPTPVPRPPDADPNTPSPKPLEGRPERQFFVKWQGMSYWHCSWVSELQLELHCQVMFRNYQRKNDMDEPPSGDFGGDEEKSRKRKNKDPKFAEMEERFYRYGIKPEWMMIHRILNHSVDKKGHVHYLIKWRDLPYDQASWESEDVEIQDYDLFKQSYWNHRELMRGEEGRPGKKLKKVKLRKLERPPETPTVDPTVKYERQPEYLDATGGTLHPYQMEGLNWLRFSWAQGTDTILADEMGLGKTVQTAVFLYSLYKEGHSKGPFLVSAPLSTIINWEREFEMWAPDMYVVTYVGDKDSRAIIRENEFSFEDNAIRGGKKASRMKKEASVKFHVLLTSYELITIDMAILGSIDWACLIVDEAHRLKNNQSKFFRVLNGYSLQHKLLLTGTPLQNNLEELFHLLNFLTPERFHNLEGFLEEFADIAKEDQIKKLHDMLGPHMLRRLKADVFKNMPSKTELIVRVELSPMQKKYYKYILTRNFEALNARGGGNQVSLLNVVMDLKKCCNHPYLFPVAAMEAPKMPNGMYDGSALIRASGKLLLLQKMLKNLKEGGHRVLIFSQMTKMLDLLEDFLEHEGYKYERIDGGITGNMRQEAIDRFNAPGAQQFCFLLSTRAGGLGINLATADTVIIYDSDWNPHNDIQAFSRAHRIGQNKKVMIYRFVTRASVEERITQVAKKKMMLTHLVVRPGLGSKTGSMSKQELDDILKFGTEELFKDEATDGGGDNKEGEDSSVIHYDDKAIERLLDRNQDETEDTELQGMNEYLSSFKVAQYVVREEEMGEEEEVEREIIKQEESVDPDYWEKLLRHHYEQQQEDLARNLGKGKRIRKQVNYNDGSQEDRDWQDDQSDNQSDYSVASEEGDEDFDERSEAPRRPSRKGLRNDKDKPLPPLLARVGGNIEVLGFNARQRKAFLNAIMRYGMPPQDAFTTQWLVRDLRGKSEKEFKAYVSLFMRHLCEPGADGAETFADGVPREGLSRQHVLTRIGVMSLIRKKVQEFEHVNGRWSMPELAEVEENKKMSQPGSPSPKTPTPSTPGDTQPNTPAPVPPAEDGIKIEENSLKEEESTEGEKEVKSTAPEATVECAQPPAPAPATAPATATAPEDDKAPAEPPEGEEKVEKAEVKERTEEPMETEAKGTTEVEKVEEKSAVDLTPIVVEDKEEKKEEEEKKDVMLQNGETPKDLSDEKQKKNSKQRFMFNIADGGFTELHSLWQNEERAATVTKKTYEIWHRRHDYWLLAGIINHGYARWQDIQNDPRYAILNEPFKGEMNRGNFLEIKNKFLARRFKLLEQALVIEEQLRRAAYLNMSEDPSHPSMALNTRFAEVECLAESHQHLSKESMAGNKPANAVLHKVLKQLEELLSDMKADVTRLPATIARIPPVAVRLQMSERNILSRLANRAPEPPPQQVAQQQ
UniProt O09106: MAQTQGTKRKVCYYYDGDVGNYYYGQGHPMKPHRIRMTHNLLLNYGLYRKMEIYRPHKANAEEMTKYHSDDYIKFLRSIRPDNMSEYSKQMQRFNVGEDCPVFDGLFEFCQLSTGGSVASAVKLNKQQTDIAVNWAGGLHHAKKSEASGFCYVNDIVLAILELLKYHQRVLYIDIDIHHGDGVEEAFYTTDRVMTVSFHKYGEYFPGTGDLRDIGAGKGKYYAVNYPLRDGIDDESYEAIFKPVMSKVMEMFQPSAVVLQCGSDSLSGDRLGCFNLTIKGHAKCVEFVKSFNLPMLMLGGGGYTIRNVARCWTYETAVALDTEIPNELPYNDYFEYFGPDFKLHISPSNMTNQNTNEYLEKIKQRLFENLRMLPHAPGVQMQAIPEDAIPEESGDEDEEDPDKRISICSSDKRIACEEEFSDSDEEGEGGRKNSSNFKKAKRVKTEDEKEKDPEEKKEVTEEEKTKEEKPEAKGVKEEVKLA

Biological target: T1, mouse APOBEC2 fused to BirA-Flag (mouse) (UniProt Q9WV35)
T1 sequence: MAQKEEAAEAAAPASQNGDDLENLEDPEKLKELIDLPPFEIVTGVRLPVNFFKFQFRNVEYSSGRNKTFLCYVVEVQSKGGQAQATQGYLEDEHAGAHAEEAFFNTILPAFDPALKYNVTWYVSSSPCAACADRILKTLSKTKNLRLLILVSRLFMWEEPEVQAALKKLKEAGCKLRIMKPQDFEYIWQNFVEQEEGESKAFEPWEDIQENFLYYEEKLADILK
Assay: proximity labelling

Q: With “Chromodomain-helicase-DNA-binding protein 4 (CHD4) (from UniProt Q6PDQ2 1-1915)” as the substance, how does the binding read?
A: binds

Q: Which binding does the source give for “histone deacetylase 1 (HDAC1) (from UniProt O09106 1-482)” here?
A: binds

These are yes or no findings as the source states them, for the method shown. Binding seen in cells or lysates may run through a third protein. A yes stands for co-enrichment or nearness to the bait. Other partners may have been found. Where a sequence is shown, tags or fusion partners need not be part of it.
